Measurements reported in PubChem BioAssay AID504764 (Drosophila RNAi Screening Center, 2011)

- Test: 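Knock-downs that raise or lower a Notch target reporter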 (primary screen)
- Cells: Drosophila Kc167 cells
- Reagents: long dsRNA against Drosophila genes
- Duration: about 5 days (4 days dsRNA, then 24 h after transfection)
- Conditions: transfection of constitutively active membrane-tethered Notch lacking the extracellular domain, read 24 h later
- Measurement: 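Firefly luciferase from an E(spl)m3 reporter with active Notch, plus control-promoter and uninduced reporter wells for normalisation; unnormalised counts, duplicate wells a and b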
- Reading the numbers: induced reporter light, run 1, well a and induced reporter light, run 1, well b: higher = more light from the Notch target reporter with active Notch; control promoter light, run 1, well a and control promoter light, run 1, well b: higher = more light from the viral control promoter (cell number, transfection, viability); uninduced reporter light, run 1, well a: higher = more light from the Notch target reporter without active Notch
- Call rule: 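Wells with low control signal or poorly matching duplicates excluded; duplicates averaged; per source plate, z beyond ±2 for induced/control log2 ratio or beyond ±1.8 for induced/uninduced marks a hit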
- Calls: active = modifier hit (raised or lowered Notch signal); inactive = not a hit
The screen tested about 22,000 reagents; this is a random part of those with a known target gene and a result. Of all reagents, 403 (1.9%) are marked active. 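Unnormalised raw counts per well; ratio z-scores behind the hit calls and whether each hit raises or lowers signal are not deposited.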 Not stated in the record: the amount of reagent.

CG18596 [SID104195147] gave induced reporter light, run 1, well a = 1.44e5; induced reporter light, run 1, well b = 1.62e5; control promoter light, run 1, well a = 1.97e5; control promoter light, run 1, well b = 2.40e5; uninduced reporter light, run 1, well a = 13305; inactive.
Ir94h [SID104195024] gave induced reporter light, run 1, well a = 1.68e5; induced reporter light, run 1, well b = 1.40e5; control promoter light, run 1, well a = 2.17e5; control promoter light, run 1, well b = 2.11e5; uninduced reporter light, run 1, well a = 13505; inactive.
Knock-down of PGRP-SC1b [SID104187007] came out at: induced reporter light, run 1, well a = 2.21e5; induced reporter light, run 1, well b = 2.14e5; control promoter light, run 1, well a = 2.26e5; control promoter light, run 1, well b = 2.14e5; uninduced reporter light, run 1, well a = 17780; inactive.
After knock-down of Sirt4 [SID104198082], the record shows induced reporter light, run 1, well a = 1.50e5; induced reporter light, run 1, well b = 1.32e5; control promoter light, run 1, well a = 2.42e5; control promoter light, run 1, well b = 2.49e5; uninduced reporter light, run 1, well a = 10410; inactive.
Silencing of CG9014 [SID104181771] resulted in: induced reporter light, run 1, well a = 1.53e5; induced reporter light, run 1, well b = 1.48e5; control promoter light, run 1, well a = 1.72e5; control promoter light, run 1, well b = 1.71e5; uninduced reporter light, run 1, well a = 12875; inactive.
With knock-down of Sec5 [SID104180506] the results were induced reporter light, run 1, well a = 2.26e5; induced reporter light, run 1, well b = 2.16e5; control promoter light, run 1, well a = 2.10e5; control promoter light, run 1, well b = 2.26e5; uninduced reporter light, run 1, well a = 18060; inactive.
Silencing of tara [SID104196868] came out at: induced reporter light, run 1, well a = 1.70e5; induced reporter light, run 1, well b = 1.40e5; control promoter light, run 1, well a = 1.14e5; control promoter light, run 1, well b = 1.11e5; uninduced reporter light, run 1, well a = 17705; inactive.
With knock-down of Nnp-1 [SID104181957] the results were induced reporter light, run 1, well a = 1.43e5; induced reporter light, run 1, well b = 1.53e5; control promoter light, run 1, well a = 1.44e5; control promoter light, run 1, well b = 1.64e5; uninduced reporter light, run 1, well a = 11400; inactive.
Pdss2 [SID104191417] gave induced reporter light, run 1, well a = 1.11e5; induced reporter light, run 1, well b = 1.42e5; control promoter light, run 1, well a = 71530; control promoter light, run 1, well b = 71470; uninduced reporter light, run 1, well a = 8170; inactive.
wkd [SID104195569] scored induced reporter light, run 1, well a = 86525; induced reporter light, run 1, well b = 88350; control promoter light, run 1, well a = 84140; control promoter light, run 1, well b = 66105; uninduced reporter light, run 1, well a = 5500; inactive.
Depletion of Ccn [SID104189296] resulted in: induced reporter light, run 1, well a = 1.74e5; induced reporter light, run 1, well b = 1.52e5; control promoter light, run 1, well a = 2.94e5; control promoter light, run 1, well b = 2.47e5; uninduced reporter light, run 1, well a = 17025; inactive.
Ccn [SID104189298] scored induced reporter light, run 1, well a = 1.30e5; induced reporter light, run 1, well b = 1.19e5; control promoter light, run 1, well a = 1.33e5; control promoter light, run 1, well b = 1.58e5; uninduced reporter light, run 1, well a = 13130; inactive.
Silencing of Ccn [SID104189854] resulted in: induced reporter light, run 1, well a = 1.08e5; induced reporter light, run 1, well b = 92370; control promoter light, run 1, well a = 74450; control promoter light, run 1, well b = 85095; uninduced reporter light, run 1, well a = 8040; inactive.
For Ccn [SID104189855], the entry reads induced reporter light, run 1, well a = 2.11e5; induced reporter light, run 1, well b = 1.57e5; control promoter light, run 1, well a = 2.28e5; control promoter light, run 1, well b = 2.00e5; uninduced reporter light, run 1, well a = 11405; inactive.

Targets listed so far whose gene name starts with P or p:
PGRP-SC1b [SID104187007] → induced reporter light, run 1, well a: 2.21e5; induced reporter light, run 1, well b: 2.14e5; control promoter light, run 1, well a: 2.26e5; control promoter light, run 1, well b: 2.14e5; uninduced reporter light, run 1, well a: 17780; Call: inactive
Pdss2 [SID104191417] → induced reporter light, run 1, well a: 1.11e5; induced reporter light, run 1, well b: 1.42e5; control promoter light, run 1, well a: 71530; control promoter light, run 1, well b: 71470; uninduced reporter light, run 1, well a: 8170; Call: inactive
